Experimental data taken from PMC11077047, “Activation of zinc uptake regulator by zinc binding to three regulatory sites”.

Biological target: T1, Zur H36A (Streptomyces coelicolor) (UniProt Q9L2H5)
T1 sequence (looked up, limits assumed): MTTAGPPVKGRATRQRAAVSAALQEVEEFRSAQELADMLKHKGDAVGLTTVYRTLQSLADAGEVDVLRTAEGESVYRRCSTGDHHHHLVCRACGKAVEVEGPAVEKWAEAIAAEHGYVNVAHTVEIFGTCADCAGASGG
Assay: EMSA
Conditions: 400 nM Zur, 0-5 uM ZnSO4, faint smeared bands, EMSA: 20 mM Tris-HCl pH 7.8, 150 mM NaCl, 5 mM DTT, 0.1 mg/ml BSA, 5% glycerol, 0.1 ug poly(dI-dC) per 20 ul, 65 nM DNA, recombinant protein, label: 6-FAM in EMSA

| Sequence | binding result (hexamer needs higher Zn) | binding result |
| --- | --- | --- |
| CAAGGCACATGACAACGGTGTTCAGTGCCGCGT (double strand) [zitB 33 bp] | binds more weakly |  |
| TCCGCTTGTTGACAACGGTTTCCATATTTGTTG (double strand) [znuA 33 bp (zurbox site 1)] |  | binds more weakly |

Construct, isoform or probe ends are uncertain for at least one entry. The comparison behind a weaker result is the experiment's own reference, which may not be listed here. Protein sequences can lack the tags named with them.
